Data published in article PMC12670160, “A drug-repurposing screen of FDA- and EMA-approved drugs identifies two NF-κB inhibitors active against eumycetoma” (Journal of Antimicrobial Chemotherapy, 2025).
Structures can show the parent of a compound that is named as a salt. Among all 5,300 compounds or so, about 130 (2.5%) showed an effect of 50% or more. Some of the results follow.

What follows are compounds tested on M. mycetomatis strain mm55. Details: primary screen, metabolic activity vs growth control; 96 h, 2 µM; inhibitor.

Structure (SMILES)	% viability
Cc1[nH]c(/C=C2\C(=O)Nc3ccc(S(=O)(=O)Cc4c(Cl)cccc4Cl)cc32)c(C)c1C(=O)N1CCC[C@@H]1CN1CCCC1 [ONC0001382, pha665752]	106.2%
O=C(O)CC/C=C\C[C@@H]1CO[C@H](c2ccccc2Cl)O[C@@H]1c1ccccc1O [ONC0000168, ici192605]	108.7%
COc1ccc(CNCc2cccc3ccccc23)cc1 [ONC0005066, ml133 hcl]	127.2%
NC(=O)[C@@H](CCC(F)(F)F)N(Cc1ccc(-c2ncon2)cc1F)S(=O)(=O)c1ccc(Cl)cc1 [ONC0004660, bms708163 avagacestat]	74.48%
COc1ccc(S(=O)(=O)Nc2cc(Cl)cc(Cl)c2OC)cc1N1CCNCC1 [ONC0000041, sb399885]	47.84%
CN(CCOc1ccc(-c2ccc3c(c2)OCO3)cc1C(C)(C)C)CC(=O)O [ONC0000080, ly2365109]	127%
c1ccc2c(-c3cnn4cc(-c5ccc(N6CCNCC6)cc5)cnc34)ccnc2c1 [ONC0002248, ldn193189 hydrochloride]	98.97%
CC(C)(Oc1ccc(C2CC2(Cl)Cl)cc1)C(=O)O (stereo not drawn) [ONC0005211, ciprofibrate]	132.1%
Cc1csc(NC(=O)CSc2ccc(-c3ccccc3)nn2)n1 [ONC0001246, vu 0240551]	69.07%
Cn1nccc1Nc1nccc(-c2ccn(C(CO)c3ccc(Cl)c(F)c3)c(=O)c2)n1 (stereo not drawn) [ONC0004559, gdc0994]	64.97%
N[C@@H](CSS(=O)(=O)O)C(=O)O [ONC0001532, ssulfolcysteinesodiumsalt]	120.8%
CCN1CCC[C@H]1CNC(=O)c1cc(S(N)(=O)=O)ccc1OC [ONC0000775, levosulpiride]	92.97%
C[C@H](NC(=O)[C@@H](N)Cc1ccc(O)cc1)C(=O)NCC(=O)N(C)[C@@H](Cc1ccccc1)C(=O)N[C@H](CO)CC[S+](C)[O-] (stereo partly drawn) [ONC0001940, dala2nmephe4 methionin ool5enkephalin]	95.76%
Clc1ccc(-c2nc3sccn3c2/C=N/OCc2ccc(Cl)c(Cl)c2)cc1 [ONC0002602, citco]	80.8%
CCCCCCCCCCCC(=O)O [ONC0003515, dodecanoic acid]	63.61%
CC1CCN(CCCC(=O)c2ccc(F)cc2)CC1 [ONC0003570, melperone]	111.5%
Cc1nc2ccccc2c(-c2ccc3c4c(ccnc24)CCO3)c1[C@H](OC(C)(C)C)C(=O)O [ONC0003508, bi 224436]	66.47%
O=C(O)[C@@H](S)[C@@H](S)C(=O)O [ONC0003848, dimercaptosuccinicacid]	69.66%
COc1ccc(-c2oc3c(CC=C(C)C)c(O)cc(O)c3c(=O)c2O)cc1 [ONC0001762, icaritin]	114%
O=C1C(Cl)=C(NCCN2CCOCC2)C(=O)c2ncccc21 [ONC0002516, nsc663284]	81.33%

Structure (SMILES)	% viability
O=C(Nc1ccc(-c2ccncc2)cc1)N[C@H](CO)c1ccccc1 [ONC0000213, as1892802]	69.04%
O=S(=O)(NCCCCCCc1ccccc1)c1cccc2c(Cl)cccc12 [ONC0002705, sc9]	87.04%
O=C(CCN1CCN(C(=O)OCc2cc(Cl)cc(Cl)c2)CC1)c1ccc2[nH]c(=O)oc2c1 [ONC0000928, pf8380]	65.28%
O=C(Nc1ccccc1)Nc1ccc(-c2ccc(C(=O)[C@@H]3CCC[C@@H]3C(=O)O)cc2)cc1 [ONC0005068, a 922500]	83.85%
CC(=O)c1ccc(NS(C)(=O)=O)c(Oc2ccc(F)cc2F)c1 [ONC0001180, fk 3311]	85.6%
CCOCc1cc(OC)c(-c2ccc(C[C@H](NC(=O)c3c(F)cccc3F)C(=O)O)cc2)c(OC)c1 [ONC0000992, firategrast]	77.08%
CC(O)(C(=O)Nc1ccc(S(=O)(=O)c2ccccc2)cc1)C(F)(F)F (stereo not drawn) [ONC0001465, zm226600]	52.05%
N[C@@H](CCC(=O)N[C@@H](CSN=O)C(=O)NCC(=O)O)C(=O)O [ONC0003929, snitrosoglutathione]	63.41%
CC(CCc1ccc(O)cc1)NCCc1ccc(O)c(O)c1 (stereo not drawn) [ONC0001208, dobutamine hydrochloride]	106.8%
CCCNS(=O)(=O)Nc1ncnc(OCCOc2ncc(Br)cn2)c1-c1ccc(Br)cc1 [ONC0004375, macitentan]	136.6%
CCOC(=O)CSCCC1NC(C(=O)O)CS1 (stereo not drawn) [ONC0003361, letosteine]	74.26%
CC1=C(C(=O)OCCN(Cc2ccccc2)c2ccccc2)C(c2cccc([N+](=O)[O-])c2)C(P2(=O)OCC(C)(C)CO2)=C(C)N1 (stereo not drawn) [ONC0000208, efonidipinemonoethanolate]	72.76%
C1CCC2(CC1)CCNCC2 [ONC0002600, 44pentamethylenepiperidine]	78.96%
CC(=O)[C@H]1CC[C@H]2[C@@H]3CC=C4C[C@@H](O)CC[C@]4(C)[C@H]3CC[C@]12C [ONC0003199, pregnenolone]	77.25%
CS(=O)(=O)c1ccc(Oc2cc(F)cc(C#N)c2)c2c1[C@H](O)C(F)(F)C2 [ONC0001118, pt2385]	47.48%
[N-]=[N+]=N[C@]1(CO)O[C@@H](n2ccc(N)nc2=O)[C@@H](O)[C@@H]1O [ONC0000950, ro9187]	66.7%
CC[C@]12CCCN3CCc4c(n(c5ccccc45)[C@@](O)(C(=O)OC)C1)[C@@H]32 [ONC0003425, vincamine]	89.22%
CCOC(=O)c1ccc(C#Cc2ccc3c(c2)C(C)(C)CCS3)nc1 [ONC0004840, tazarotene avage]	98.67%
CC(C)N(CCC(=O)c1ccc2ccccc2c1)Cc1ccccc1 [ONC0001511, zm39923]	104.1%
CN1C2CCC1CC(OC(c1ccc(F)cc1)c1ccc(F)cc1)C2 (stereo not drawn) [ONC0001429, 3alphabis4fluorophenylmethoxytropane]	64.19%

Structure (SMILES)	% viability
COc1cnc(-n2cnc(C)n2)c2[nH]cc(C(=O)C(=O)N3CCN(C(=O)c4ccccc4)CC3)c12 [ONC0005617, temsavir]	66.52%
CCC(C)(C)c1ccc(CC(C)CN2C[C@@H](C)O[C@@H](C)C2)cc1 (stereo partly drawn) [ONC0002289, amorolfine hydrochloride]	102.4%
CC1=NN(c2ccc(C(=O)O)cc2)C(=O)C1=Cc1ccc(-c2cc(C)c(C)cc2[N+](=O)[O-])o1 [ONC0005189, c646]	86.23%
CC(=O)N(O)C/C=C/c1cccc(Oc2ccccc2)c1 [ONC0002118, bwa4c]	107.7%
Cc1ccc2c(c1)Cc1c(C(=O)NN3CCCCC3)nn(-c3ccc(Cl)cc3Cl)c1-2 [ONC0003618, gp1a]	65.76%
O=c1[nH]c(=O)n([C@H]2C[C@H](O)[C@@H](CO)O2)cc1/C=C/Br [ONC0002734, e52bromovinyl2deoxyuridine]	104.4%
COc1ccc(-c2cc3c(C)nc(N)nc3n([C@H]3CC[C@H](OCCO)CC3)c2=O)cn1 [ONC0005035, pf04691502]	124.7%
NCC(=O)N1C[C@H](NC(=O)c2ccccc2)C[C@H]1C(=O)O [ONC0002056, danegaptide hydrochloride]	91.92%
CNC[C@@H]1CC[C@@H](N)[C@@H](O[C@H]2[C@H](O)[C@@H](O[C@H]3OC[C@](C)(O)[C@H](NC)[C@H]3O)[C@H](N)C[C@@H]2N)O1 [ONC0000290, micronomicin sulfate]	71.21%
Nc1nc2c(ncn2[C@@H]2O[C@H](CO)[C@@H](O)[C@H]2O)c(=S)[nH]1 [ONC0004689, thioguanosine]	121.6%
CCOC(=O)Nc1ccc(NCc2ccc(F)cc2)nc1N.O=C(O)/C=C\C(=O)O [ONC0001304, flupirtine maleate]	68.53%
CCC[C@@H](NC(=O)N1C(=O)C(CC)(CC)[C@@H]1Oc1ccc(C(=O)N2CCN(C)CC2)cc1)c1ccc2c(c1)OCO2 [ONC0002097, dmp 777]	57.58%
CN[C@@H]1Cc2cccc3[nH]c(=O)n(c23)C1 [ONC0005404, sumanirole]	122.2%
Cn1c(=O)c(F)c(Nc2ccc(I)cc2F)c2c(=O)n(C[C@@H](O)CO)cnc21 [ONC0004657, tak733]	95.29%
COc1ccc2c(NC(=O)Nc3cccc(C(F)(F)F)n3)ccnc2c1 [ONC0002529, a1070722]	76.76%
COc1ccc2nc3cc(Cl)ccc3c(Nc3cc(CN4CCCC4)c(O)c(CN4CCCC4)c3)c2n1 [ONC0004161, pyronaridine tetraphosphate]	95.09%
CO/N=C(\C(=O)N[C@@H]1C(=O)N2C(C(=O)O)=C(CSc3nc(C)c(CC(=O)O)s3)CS[C@H]12)c1csc(N)n1 [ONC0003298, cefodizime]	95.35%
CCCCCCCCCCCCCCCCO [ONC0004836, 1hexadecanol]	111.6%
CCN1/C(=C/C(C)=O)Sc2ccc(OC)cc21 [ONC0004814, tg003]	98.43%
Cc1cc(C)cc(NC(=O)Cc2ccc(OC(C)(C)C(=O)O)cc2)c1 [ONC0004554, efaproxiral sodium]	66.87%

Not a retest: an excerpt of the list.
Structure (SMILES)	% viability
CC1=C(C(=O)OCCN(Cc2ccccc2)c2ccccc2)C(c2cccc([N+](=O)[O-])c2)C(P2(=O)OCC(C)(C)CO2)=C(C)N1 (stereo not drawn) [ONC0000208, efonidipinemonoethanolate]	72.76%
C1CCC2(CC1)CCNCC2 [ONC0002600, 44pentamethylenepiperidine]	78.96%
CC(=O)[C@H]1CC[C@H]2[C@@H]3CC=C4C[C@@H](O)CC[C@]4(C)[C@H]3CC[C@]12C [ONC0003199, pregnenolone]	77.25%
CS(=O)(=O)c1ccc(Oc2cc(F)cc(C#N)c2)c2c1[C@H](O)C(F)(F)C2 [ONC0001118, pt2385]	47.48%
